{
  "source": "the supplement of paper PMC8728848",
  "test_in_all_cases": "glycan array binding signal (z-score within array); higher = stronger binding",
  "details_in_all_cases": "glycan notation: IUPAC condensed, linker removed",
  "key": {"[1]": {"molecular_target": "Neu5Ac(a2-6)Gal", "procedure,_shortened": "(§1)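 The binding signal is a Z-score computed within each array and averaged over linkers. Arrays of the same protein sequence at different concentrations or buffers were also averaged together. Data originate from 3228 arrays in the Consortium for Functional Glycomics database, kept only where the protein sequence was available.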"}, "[2]": {"molecular_target": "Neu5Ac(a2-6)Gal(b1-3)GlcNAc(b1-3)[Gal(b1-4)GlcNAc(b1-6)]Gal(b1-4)Glc", "procedure,_shortened": "as §1"}, "[3]": {"molecular_target": "Neu5Ac(a2-6)Gal(b1-4)Glc", "procedure,_shortened": "as §1"}, "[4]": {"molecular_target": "Neu5Ac(a2-6)Gal(b1-4)GlcNAc", "procedure,_shortened": "as §1"}, "[5]": {"molecular_target": "Neu5Ac(a2-6)Gal(b1-4)GlcNAc(b1-2)Man", "procedure,_shortened": "as §1"}, "[6]": {"molecular_target": "Neu5Ac(a2-6)Gal(b1-4)GlcNAc(b1-2)Man(a1-3)Man(b1-4)GlcNAc(b1-4)GlcNAc", "procedure,_shortened": "as §1"}, "[7]": {"molecular_target": "Neu5Ac(a2-6)Gal(b1-4)GlcNAc(b1-2)Man(a1-3)[Gal(b1-4)GlcNAc(b1-2)Man(a1-6)]Man(b1-4)GlcNAc(b1-4)GlcNAc", "procedure,_shortened": "as §1"}, "[8]": {"molecular_target": "Neu5Ac(a2-6)Gal(b1-4)GlcNAc(b1-2)Man(a1-3)[GlcNAc(b1-2)Man(a1-6)]Man(b1-4)GlcNAc(b1-4)GlcNAc", "procedure,_shortened": "as §1"}, "[9]": {"molecular_target": "Neu5Ac(a2-6)Gal(b1-4)GlcNAc(b1-2)Man(a1-3)[GlcNAc(b1-4)][Neu5Ac(a2-6)Gal(b1-4)GlcNAc(b1-2)Man(a1-6)]Man(b1-4)GlcNAc(b1-4)GlcNAc", "procedure,_shortened": "as §1"}, "[10]": {"molecular_target": "Neu5Ac(a2-6)Gal(b1-4)GlcNAc(b1-2)Man(a1-3)[Man(a1-6)]Man(b1-4)GlcNAc(b1-4)GlcNAc", "procedure,_shortened": "as §1"}, "[11]": {"molecular_target": "Neu5Ac(a2-6)Gal(b1-4)GlcNAc(b1-2)Man(a1-3)[Neu5Ac(a2-3)Gal(b1-4)GlcNAc(b1-2)Man(a1-6)]Man(b1-4)GlcNAc(b1-4)GlcNAc", "procedure,_shortened": "as §1"}, "[12]": {"molecular_target": "Neu5Ac(a2-6)Gal(b1-4)GlcNAc(b1-2)Man(a1-3)[Neu5Ac(a2-6)Gal(b1-4)GlcNAc(b1-2)Man(a1-6)]Man(b1-4)GlcNAc(b1-4)GlcNAc", "procedure,_shortened": "as §1"}, "[13]": {"molecular_target": "Neu5Ac(a2-6)Gal(b1-4)GlcNAc(b1-2)Man(a1-3)[Neu5Ac(a2-6)Gal(b1-4)GlcNAc(b1-2)Man(a1-6)]Man(b1-4)GlcNAc(b1-4)[Fuc(a1-6)]GlcNAc", "procedure,_shortened": "as §1"}, "[14]": {"molecular_target": "Neu5Ac(a2-6)Gal(b1-4)GlcNAc(b1-2)Man(a1-6)Man(b1-4)GlcNAc(b1-4)GlcNAc", "procedure,_shortened": "as §1"}, "[15]": {"molecular_target": "Neu5Ac(a2-6)Gal(b1-4)GlcNAc(b1-2)Man(a1-6)[Gal(b1-4)GlcNAc(b1-2)Man(a1-3)]Man(b1-4)GlcNAc(b1-4)GlcNAc", "procedure,_shortened": "as §1"}, "[16]": {"molecular_target": "Neu5Ac(a2-6)Gal(b1-4)GlcNAc(b1-2)Man(a1-6)[GlcNAc(b1-2)Man(a1-3)]Man(b1-4)GlcNAc(b1-4)GlcNAc", "procedure,_shortened": "as §1"}, "[17]": {"molecular_target": "Neu5Ac(a2-6)Gal(b1-4)GlcNAc(b1-2)Man(a1-6)[Man(a1-3)]Man(b1-4)GlcNAc(b1-4)GlcNAc", "procedure,_shortened": "as §1"}, "[18]": {"molecular_target": "Neu5Ac(a2-6)Gal(b1-4)GlcNAc(b1-2)[Neu5Ac(a2-6)Gal(b1-4)GlcNAc(b1-4)]Man(a1-3)[GlcNAc(b1-4)][Neu5Ac(a2-6)Gal(b1-4)GlcNAc(b1-2)[Neu5Ac(a2-6)Gal(b1-4)GlcNAc(b1-6)]Man(a1-6)]Man(b1-4)GlcNAc(b1-4)GlcNAc", "procedure,_shortened": "as §1"}, "[19]": {"molecular_target": "Neu5Ac(a2-6)Gal(b1-4)GlcNAc(b1-2)[Neu5Ac(a2-6)Gal(b1-4)GlcNAc(b1-4)]Man(a1-3)[GlcNAc(b1-4)][Neu5Ac(a2-6)Gal(b1-4)GlcNAc(b1-4)Man(a1-6)]Man(b1-4)GlcNAc(b1-4)GlcNAc", "procedure,_shortened": "as §1"}, "[20]": {"molecular_target": "Neu5Ac(a2-6)Gal(b1-4)GlcNAc(b1-2)[Neu5Ac(a2-6)Gal(b1-4)GlcNAc(b1-6)]Man(a1-6)[Neu5Ac(a2-6)Gal(b1-4)GlcNAc(b1-2)Man(a1-3)][GlcNAc(b1-4)]Man(b1-4)GlcNAc(b1-4)GlcNAc", "procedure,_shortened": "as §1"}, "[21]": {"molecular_target": "Neu5Ac(a2-6)Gal(b1-4)GlcNAc(b1-3)Gal(b1-3)GlcNAc", "procedure,_shortened": "as §1"}, "[22]": {"molecular_target": "Neu5Ac(a2-6)Gal(b1-4)GlcNAc(b1-3)Gal(b1-4)GlcNAc", "procedure,_shortened": "as §1"}, "[23]": {"molecular_target": "Neu5Ac(a2-6)Gal(b1-4)GlcNAc(b1-3)Gal(b1-4)GlcNAc(b1-2)Man(a1-3)[Neu5Ac(a2-6)Gal(b1-4)GlcNAc(b1-3)Gal(b1-4)GlcNAc(b1-2)Man(a1-6)]GalNAc", "procedure,_shortened": "as §1"}, "[24]": {"molecular_target": "Neu5Ac(a2-6)Gal(b1-4)GlcNAc(b1-3)Gal(b1-4)GlcNAc(b1-3)Gal(b1-4)GlcNAc", "procedure,_shortened": "as §1"}, "[25]": {"molecular_target": "Neu5Ac(a2-6)Gal(b1-4)GlcNAc(b1-3)Gal(b1-4)GlcNAc(b1-3)Gal(b1-4)GlcNAc(b1-2)Man(a1-3)[Neu5Ac(a2-6)Gal(b1-4)GlcNAc(b1-3)Gal(b1-4)GlcNAc(b1-3)Gal(b1-4)GlcNAc(b1-2)Man(a1-6)]GalNAc", "procedure,_shortened": "as §1"}, "[26]": {"molecular_target": "Neu5Ac(a2-6)Gal(b1-4)GlcNAc(b1-3)Gal(b1-4)GlcNAc(b1-3)GalNAc", "procedure,_shortened": "as §1"}, "[27]": {"molecular_target": "Neu5Ac(a2-6)Gal(b1-4)GlcNAc(b1-3)Gal(b1-4)GlcNAc(b1-3)[Neu5Ac(a2-6)Gal(b1-4)GlcNAc(b1-3)Gal(b1-4)GlcNAc(b1-6)]GalNAc", "procedure,_shortened": "as §1"}, "[28]": {"molecular_target": "Neu5Ac(a2-6)Gal(b1-4)GlcNAc(b1-3)Gal(b1-4)GlcNAc(b1-6)[Gal(b1-3)]GalNAc", "procedure,_shortened": "as §1"}, "[29]": {"molecular_target": "Neu5Ac(a2-6)Gal(b1-4)GlcNAc(b1-3)Gal(b1-4)[Fuc(a1-3)]GlcNAc(b1-3)Gal(b1-4)[Fuc(a1-3)]GlcNAc", "procedure,_shortened": "as §1"}, "[30]": {"molecular_target": "Neu5Ac(a2-6)Gal(b1-4)GlcNAc(b1-3)GalNAc", "procedure,_shortened": "as §1"}, "[31]": {"molecular_target": "Neu5Ac(a2-6)Gal(b1-4)GlcNAc(b1-3)[Neu5Ac(a2-6)Gal(b1-4)GlcNAc(b1-6)]GalNAc", "procedure,_shortened": "as §1"}, "[32]": {"molecular_target": "Neu5Ac(a2-6)Gal(b1-4)GlcNAc(b1-6)GalNAc", "procedure,_shortened": "as §1"}, "[33]": {"molecular_target": "Neu5Ac(a2-6)Gal(b1-4)GlcNAc(b1-6)[Gal(b1-3)GlcNAc(b1-3)]Gal(b1-4)Glc", "procedure,_shortened": "as §1"}, "[34]": {"molecular_target": "Neu5Ac(a2-6)Gal(b1-4)GlcNAc(b1-6)[Gal(b1-3)]GalNAc", "procedure,_shortened": "as §1"}, "[35]": {"molecular_target": "Neu5Ac(a2-6)Gal(b1-4)GlcNAc6S", "procedure,_shortened": "as §1"}, "[36]": {"molecular_target": "Neu5Ac(a2-6)GalNAc", "procedure,_shortened": "as §1"}, "[37]": {"molecular_target": "Neu5Ac(a2-6)GalNAc(b1-4)GlcNAc", "procedure,_shortened": "as §1"}, "[38]": {"molecular_target": "Neu5Ac(a2-6)GalNAc(b1-4)GlcNAc6S", "procedure,_shortened": "as §1"}},
  "note": "The list shows a part of the results.",
  "data": [
    {"binder": "SP15308C-bot-338-23-338 (Bacteroides ovatus) (protein) DEWTDEQFKQLISFKTQPGGWGVTDVHVRYANSAKYTYNLPVLVSGSTDNTDDRLVSFSLRDDTLDILNFEKFGNRPELYFRELPQKYYSFPKELTIPAGQSHALLPIEFSLDGLDDSQKWALPLKVCEDANGTYAVNPRKYYRTAVLRPILFNEFSGRFSGSSLLGTMAGESDIKFSSTEIKLNVVTDSIVFFYAGQRTEDYEDRINYKVFLQFTGDKVDSKKDLYKMKIWAENEKLKFNSYSTPTYKVSSEMDATKTYLKHTYIVISDIDFDFVDYTSVPNYEIEYNMKGGLSVSRDLDTRKPDEDQGSDSKWW", "values": [
      {"measurement": "glycan array binding signal (z-score)", "setting": "[1]", "result": -0.443},
      {"measurement": "glycan array binding signal (z-score)", "setting": "[2]", "result": -0.272},
      {"measurement": "glycan array binding signal (z-score)", "setting": "[3]", "result": -0.562},
      {"measurement": "glycan array binding signal (z-score)", "setting": "[4]", "result": 0.375},
      {"measurement": "glycan array binding signal (z-score)", "setting": "[5]", "result": -0.153},
      {"measurement": "glycan array binding signal (z-score)", "setting": "[6]", "result": 0.711},
      {"measurement": "glycan array binding signal (z-score)", "setting": "[7]", "result": -0.616},
      {"measurement": "glycan array binding signal (z-score)", "setting": "[8]", "result": -0.65},
      {"measurement": "glycan array binding signal (z-score)", "setting": "[9]", "result": 0.444},
      {"measurement": "glycan array binding signal (z-score)", "setting": "[10]", "result": -0.065},
      {"measurement": "glycan array binding signal (z-score)", "setting": "[11]", "result": -0.387},
      {"measurement": "glycan array binding signal (z-score)", "setting": "[12]", "result": -0.142},
      {"measurement": "glycan array binding signal (z-score)", "setting": "[13]", "result": 0.771},
      {"measurement": "glycan array binding signal (z-score)", "setting": "[14]", "result": -0.435},
      {"measurement": "glycan array binding signal (z-score)", "setting": "[15]", "result": 1.16},
      {"measurement": "glycan array binding signal (z-score)", "setting": "[16]", "result": -0.62},
      {"measurement": "glycan array binding signal (z-score)", "setting": "[17]", "result": -0.528},
      {"measurement": "glycan array binding signal (z-score)", "setting": "[18]", "result": -0.902},
      {"measurement": "glycan array binding signal (z-score)", "setting": "[19]", "result": 0.594},
      {"measurement": "glycan array binding signal (z-score)", "setting": "[20]", "result": -0.283},
      {"measurement": "glycan array binding signal (z-score)", "setting": "[21]", "result": -0.49},
      {"measurement": "glycan array binding signal (z-score)", "setting": "[22]", "result": -0.235},
      {"measurement": "glycan array binding signal (z-score)", "setting": "[23]", "result": 0.187},
      {"measurement": "glycan array binding signal (z-score)", "setting": "[24]", "result": -0.343},
      {"measurement": "glycan array binding signal (z-score)", "setting": "[25]", "result": 2.46},
      {"measurement": "glycan array binding signal (z-score)", "setting": "[26]", "result": -0.198},
      {"measurement": "glycan array binding signal (z-score)", "setting": "[27]", "result": -0.165},
      {"measurement": "glycan array binding signal (z-score)", "setting": "[28]", "result": 0.553},
      {"measurement": "glycan array binding signal (z-score)", "setting": "[29]", "result": -0.639},
      {"measurement": "glycan array binding signal (z-score)", "setting": "[30]", "result": 0.388},
      {"measurement": "glycan array binding signal (z-score)", "setting": "[31]", "result": -0.102},
      {"measurement": "glycan array binding signal (z-score)", "setting": "[32]", "result": 0.47},
      {"measurement": "glycan array binding signal (z-score)", "setting": "[33]", "result": -0.068},
      {"measurement": "glycan array binding signal (z-score)", "setting": "[34]", "result": 0.95},
      {"measurement": "glycan array binding signal (z-score)", "setting": "[35]", "result": 0.467},
      {"measurement": "glycan array binding signal (z-score)", "setting": "[36]", "result": -0.292},
      {"measurement": "glycan array binding signal (z-score)", "setting": "[37]", "result": 0.259},
      {"measurement": "glycan array binding signal (z-score)", "setting": "[38]", "result": 0.087}
    ]}
  ]
}
